Assay results published in article PMC6002686.
The exact form of at least one protein or probe is not confirmed.

Target: FnrD154A (constitutively active Fnr) (Escherichia coli K12 (from plasmid pPK822)) (UniProt P0A9E5)
Assay: EMSA
Details: 50 ug BSA, 261 bp non-specific competitor DNA, 37 C, dose-dependent; recombinant protein; residues 1-250; protein details: C-terminal 6xHis (pBAD-TOPO); label: none (GelRed stain); probe letters rebuilt from the primers and the genome

Does “TCTAAGAAAACCTCATCCCGGGATTTTCAGGCAACCCTCCCGGTGATGCCAAAGAGAAAAGTGTAGTTCGTTGACAATAAATTTACATTTCTACAACTTAAAAGGGCCATTTTTGCTAAAGAAGCGAGTCAGCCCGTTTAACCTTTATCCAGGCTTGCCGACAGTAGAATTGAGATGGCTCCGCTACTTCACCCGGTGACGGCTGATTACGTTATGCCTTATCTCCTGATGACGGCTGCCAGATCACAATGCTTTGGTAAACCGGAAATGACTTTGCTTGTAACCTTCGCGAAGATAAAAACGGTGTGCATCGCGGCGTTTAATATTTGTGGAAAGCTCCGTTAGCTCGGCGCCCGCCTGACGTGCTTCTTCTTCTGCCCAGGCCAGAAGCTGACTGCCAATTTTTTGTCCCCGCATCGGCGGTAATACCACCAGCTCCTGAATTTCGCCAATCCAGTTGGCATGATGGAGATGAAACT (double strand) [complete lpxO promoter region, 480 bp]” bind?
Result: binds
